These are yes or no findings as the source states them, for the method shown. Binding seen in cells or lysates may run through a third protein. A result given as binding can be weak or reduced; the word gives no strength. For some of these results: Sequences can lack the tags named with a protein.

In experiment [1] the target is T1, GST-CD82 WT (mammalian GST fusion) (UniProt P40237).
T1 sequence: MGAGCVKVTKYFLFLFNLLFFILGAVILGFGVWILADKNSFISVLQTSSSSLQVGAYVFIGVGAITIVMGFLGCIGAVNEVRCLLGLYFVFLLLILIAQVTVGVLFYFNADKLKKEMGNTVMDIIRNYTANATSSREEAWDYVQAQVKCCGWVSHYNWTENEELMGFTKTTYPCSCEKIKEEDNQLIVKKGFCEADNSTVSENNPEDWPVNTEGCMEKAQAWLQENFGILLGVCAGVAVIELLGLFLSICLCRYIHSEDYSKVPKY
Kind of experiment: pull-down; 293T cells co-transfected (48 h) with mammalian GST-CD82 or truncated mutants and GFP-Rab5 or GFP-Rab22 or their mutants; GST pulldown from lysate, IB with anti-GFP.

For experiment [2], the target named is T2, GST-CD82 truncated mutant, extracellular domain aa32–54 (UniProt P40237).
T2 sequence: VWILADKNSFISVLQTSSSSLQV
The description is as above.

Experiment [3] concerns the target Rab5 (endogenous, mouse BMDMs) (mouse (endogenous in BMDMs)). Kind of experiment: co-IP.

As to GFP-Rab22 WT, the results for the binding entry in experiment [1] and in experiment [2] were “binds” and “binds weakly”, respectively.
On to GFP-Rab22 S19L (GDP-bound form), for which the binding entry in experiment [1] is “no binding”.
GFP-Rab5 Q67L (GTP-bound form): the binding entry in experiment [1] was “binds”.
For GFP-Rab5 S34N (GDP-bound form), the binding result in experiment [1] was “no binding”.
GFP-Rab22 Q64L (GTP-bound form): the binding result in experiment [1] is given as “binds”.

B1: Rabenosyn-5 (endogenous, mouse BMDMs) (protein, UniProt Q80Y56 1-783)
chain: MASLDDPGEVREGFLCPLCLKDLQSFYQLQSHYEEEHLEDRDVKGQIKNLVQKARKAKNKLLKREGDDRVEPGTQGYESFSYGGVDPYMWEPQELGAMRSHLSDFKKHRAARIDHYVVEVNKLIIRLEKLTAFDRTNTETSKIRAIEKSVVPWVNDQDVPFCPDCGNKFSIRNRRHHCRLCGSIMCKKCMELIGLPLAHKLTSASKDSLSTHTSPSQSPNSVHGSRRGSISSMSSVSSVLDEKDDDRIRCCTHCKDKLLKREQQMDEKEHTPDIVKLYEKLRLCMEKVDQKAPEYIRMAASLNAGETTYNLEHANDLRVEVQKVYELIDALSKKILTLGLNQDPSPHPNTLRLQRMIRYSATLFVQEKLLGLMSLPTKEQFEELKKKRKQDLEQKRTVERQAALESRRKLEERQSGLASHTANGDVRSLRGIPPPLRKAEGWLPLSEGQGQSEDPDPLLQQIYNITSFIRQAKAAGRTDEVRTLQENLRQLQDEYDQQQTEKAIELSRKQAEEEELQREQLQMLRKRELEREQEQFLAASLQTRTRVLELREVIPFQLEASRGPHIDLSYSLDQDSSPVQSSTAPDILTPGSALAPMHLWSGPPALGQETLPQSTMSQQSDKASLNPFDEDDLSSPTEGAISPAAVEAFLGPPAAVTKEYNPFEEDAEEEEVAELGAGNPFTDPDSPAPNPFDEDDGPRPASPAAPGNPFEECPSTNPFEVDSDSGMEAEEHIEEELLLQQIDNIKAYIFDAKQCGRMDEVEVLTENLRELKCTLAKQKGAPN
B1: in experiment [3], the binding entry was “binds”.
